Source: patent publication US20080249077A1, “17.Beta.-Fluoromethoxycarbonyl-Androst-4-En-3-One Compounds With a 17.Alpha.-Carbonate Sustituent” (priority 2005, published 2008)
Some results were stated once for a whole list of compounds, not compound by compound. At least one structure is not confirmed: it was looked up by name or label, or the drawing left a doubt.

Key:
Type in all cases: cell-based
glucocorticoid receptor [1] = target: T1, glucocorticoid receptor (Homo sapiens, UniProt P04150); test: Assay for transrepression activity of the glucocorticoid agonists (NF-κB responsive ELAM promoter-sPAP reporter, TNF-stimulated A549 cells); settings: compound 1 hour at 37° C., then TNF 10 ng/ml for 16 hours
T1 construct: A549 cells stably transfected with a reporter gene; endogenous in cells; host or cells: A549 cells
T1 sequence (P04150 1-777): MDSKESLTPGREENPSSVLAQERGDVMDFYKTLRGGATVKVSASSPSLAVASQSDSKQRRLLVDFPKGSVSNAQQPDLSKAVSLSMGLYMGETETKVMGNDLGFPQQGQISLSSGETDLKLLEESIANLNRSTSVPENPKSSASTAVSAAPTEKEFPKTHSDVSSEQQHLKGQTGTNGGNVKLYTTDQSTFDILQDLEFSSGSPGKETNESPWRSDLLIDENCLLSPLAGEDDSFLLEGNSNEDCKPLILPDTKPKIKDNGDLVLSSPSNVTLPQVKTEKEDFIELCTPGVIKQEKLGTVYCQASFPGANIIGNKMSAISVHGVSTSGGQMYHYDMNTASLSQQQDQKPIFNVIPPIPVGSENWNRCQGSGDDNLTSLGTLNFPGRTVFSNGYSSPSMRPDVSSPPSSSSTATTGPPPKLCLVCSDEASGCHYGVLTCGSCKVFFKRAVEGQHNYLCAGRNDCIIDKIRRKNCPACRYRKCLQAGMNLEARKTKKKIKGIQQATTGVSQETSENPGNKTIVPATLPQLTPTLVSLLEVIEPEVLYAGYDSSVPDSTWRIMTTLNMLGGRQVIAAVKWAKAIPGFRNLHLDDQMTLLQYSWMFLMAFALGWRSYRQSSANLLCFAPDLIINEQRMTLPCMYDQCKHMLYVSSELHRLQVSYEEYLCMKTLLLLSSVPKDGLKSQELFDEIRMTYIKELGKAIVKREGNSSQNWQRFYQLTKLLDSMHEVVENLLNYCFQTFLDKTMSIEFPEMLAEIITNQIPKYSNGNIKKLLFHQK
Experimental: Assay for Transrepression Activity of the Glucocorticoid Agonists
A549 cells stably transfected with a reporter gene containing the NF-κB responsive elements from the ELAM gene promoter coupled to sPAP (secreted alkaline phosphatase) are treated with test compounds at appropriate doses for 1 hour at 37° C. The cells are then stimulated with tumour necrosis factor (TNF, 10 ng/ml) for 16 hours, at which time the amount of alkaline phosphatase produced is measured by a standard colourimetric assay. Dose response curves were constructed from which EC50 values were estimated.

glucocorticoid receptor [2] = target: T1, glucocorticoid receptor; test: Assay for transactivation activity of the glucocorticoid agonists (MMTV-LTR renilla luciferase reporter in A549 cells); settings: compound 6 hour at 37° C.
Experimental: Assay for Transactivation Activity of the Glucocorticoid Agonists
The functional assay based on that described by R. J. H. Austin et al., Eur Resp J. (2002), 20, 1386-1392 measures the ability of compounds to directly transactivate gene expression. A549 cells stably transfected with a reporter gene containing the glucocorticoid responsive region of the mouse mammary tumour virus long terminal repeat (MMTV-LTR) coupled to renilla luciferase were treated with test compounds at appropriate doses for 6 hour at 37° C. The amount of luciferase activity present within the cells is then determined by measuring the light emitted following incubation with a suitable substrate. Dose response curves were constructed from which EC50 values were estimated and from which maximal responses are calculated relative to Dexamethasone (100%).

Progesterone Receptor = target: T2, Progesterone Receptor (Homo sapiens, UniProt P06401); test: Assay for progesterone receptor activity (CV-1 cells transduced with PRb-BacMam and MMTV-BacMam, Steady Glo); settings: 24 h
T2 construct: expressed in transfected cells; host or cells: CV-1 cells transduced with PRb-BacMam
T2 sequence (P06401 1-933): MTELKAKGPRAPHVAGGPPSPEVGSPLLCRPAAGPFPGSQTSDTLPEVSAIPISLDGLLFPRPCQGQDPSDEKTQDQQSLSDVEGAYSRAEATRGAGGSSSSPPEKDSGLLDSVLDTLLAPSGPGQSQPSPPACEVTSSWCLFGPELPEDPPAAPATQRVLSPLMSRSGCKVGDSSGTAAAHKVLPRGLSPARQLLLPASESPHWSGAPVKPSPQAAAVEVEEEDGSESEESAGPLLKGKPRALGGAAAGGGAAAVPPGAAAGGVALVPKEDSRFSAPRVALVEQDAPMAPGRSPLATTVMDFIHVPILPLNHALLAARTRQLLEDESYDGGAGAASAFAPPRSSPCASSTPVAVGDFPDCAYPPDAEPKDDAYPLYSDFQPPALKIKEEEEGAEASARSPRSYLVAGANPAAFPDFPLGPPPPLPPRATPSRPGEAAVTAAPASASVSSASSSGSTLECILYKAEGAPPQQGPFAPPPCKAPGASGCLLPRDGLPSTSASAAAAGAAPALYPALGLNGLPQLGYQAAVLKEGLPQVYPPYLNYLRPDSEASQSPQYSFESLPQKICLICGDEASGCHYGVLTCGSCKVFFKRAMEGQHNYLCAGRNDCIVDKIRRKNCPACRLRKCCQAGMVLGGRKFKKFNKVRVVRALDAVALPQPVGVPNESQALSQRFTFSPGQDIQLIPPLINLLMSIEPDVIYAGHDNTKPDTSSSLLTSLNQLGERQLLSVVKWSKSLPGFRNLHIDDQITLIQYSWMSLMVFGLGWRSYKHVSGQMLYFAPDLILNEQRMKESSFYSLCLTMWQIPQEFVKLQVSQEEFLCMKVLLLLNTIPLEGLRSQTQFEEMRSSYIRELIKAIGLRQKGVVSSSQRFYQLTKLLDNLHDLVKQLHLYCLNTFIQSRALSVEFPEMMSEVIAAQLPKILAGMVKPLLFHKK
Experimental: Assay for Progesterone Receptor Activity
Cells were diluted in DMEM containing 10% Hyclone, 2 mM […] and 1% Pen/Strep at 140 cells/μl and transduced with 10% PRb-BacMam and 10% MMTV-BacMam. […] of suspension cells were dispensed to each well of white Nunc 384-well plates, containing compounds at the required concentration. After 24 h 10 μl of Steady Glo were added to each well of the plates. Plates were incubated in the dark for 10 min before reading them on a Viewlux reader. Dose response curves were constructed from which pEC50 values were estimated.

C[C@@H]1C[C@H]2[C@@H]3C[C@H](F)C4=CC(=O)C=C[C@]4(C)[C@@]3(F)[C@@H](O)C[C@]2(C)[C@@]1(OC(=O)OC1CC2CCC1C2)C(=O)OCF (mixture of isomers) [Example 12B, Fluoromethyl(6α,11β,16α,17α)-17-({[(1RS,2RS,4SR)-bicyclo[2.2.1]hept-2-yloxy]carbonyl}oxy)-6,9-difluoro-11-hydroxy-16-methyl-3-oxoandrosta-1,4-diene-17-carboxylate]
pIC50 (transrepression) (glucocorticoid receptor [1]): > 10

C[C@@H]1C[C@H]2[C@@H]3C[C@H](F)C4=CC(=O)C=C[C@]4(C)[C@@]3(F)[C@@H](O)C[C@]2(C)[C@@]1(OC(=O)OC1CC2CCC1C2)C(=O)OCF (mixture of isomers) [Example 13, Fluoromethyl(6α,11β,16α,17α)-17-({[(1RS,2SR,4SR)-bicyclo[2.2.1]hept-2-yloxy]carbonyl}oxy)-6,9-difluoro-11-hydroxy-16-methyl-3-oxoandrosta-1,4-diene-17-carboxylate]
maximal response relative to Dexamethasone (100%) (transactivation) (glucocorticoid receptor [2]): < 25%

COC1CCCCC1OC(=O)O[C@]1(C(=O)OCF)[C@H](C)C[C@H]2[C@@H]3C[C@H](F)C4=CC(=O)C=C[C@]4(C)[C@@]3(F)[C@@H](O)C[C@@]21C (mixture of isomers) [Example 18A, Fluoromethyl(6α,11β,16α,17α)-6,9-difluoro-11-hydroxy-16-methyl-17-[({[(1RS,2RS)-2-(methyloxy)cyclohexyl]oxy}carbonyl)oxy]-3-oxoandrosta-1,4-diene-17-carboxylate]
pEC50 (progesterone receptor) (Progesterone Receptor): < 8

COC1CCCCC1OC(=O)O[C@]1(C(=O)OCF)[C@H](C)C[C@H]2[C@@H]3C[C@H](F)C4=CC(=O)C=C[C@]4(C)[C@@]3(F)[C@@H](O)C[C@@]21C (mixture of isomers) [Example 18B, Fluoromethyl(6α,11β,16α,17α)-6,9-difluoro-11-hydroxy-16-methyl-17-[({[(1RS,2RS)-2-(methyloxy)cyclohexyl]oxy}carbonyl)oxy]-3-oxoandrosta-1,4-diene-17-carboxylate]
pIC50 (transrepression) (glucocorticoid receptor [1]): > 10

CC1CC2C3CC(F)C4=CC(=O)C=CC4(C)C3(F)C(O)CC2(C)C1(OC(=O)OC1CC2CCC1(C)C2(C)C)C(=O)OCF [Example 29B, Fluoromethyl(6α,11β,16α,17α)-6,9-difluoro-11-hydroxy-16-methyl-3-oxo-17-[({[(1R,2R,4R)-1,7,7-trimethylbicyclo[2.2.1]hept-2-yl]oxy}carbonyl)oxy]androsta-1,4-diene-17-carboxylate]
pEC50 (progesterone receptor) (Progesterone Receptor): < 8

CC1C(OC(=O)OC2(C(=O)OCF)C(C)CC3C4CC(F)C5=CC(=O)C=CC5(C)C4(F)C(O)CC32C)CC2CC1C2(C)C [Example 35, Fluoromethyl(6α,11β,16α,17α)-6,9-difluoro-11-hydroxy-16-methyl-3-oxo-17-[({[(1S,2S,3S,5R)-2,6,6-trimethylbicyclo[3.1.1]hent-3-yl]oxy}carbonyl)oxy]androsta-1,4-diene-17-carboxylate]
pIC50 (transrepression) (glucocorticoid receptor [1]): > 8.0
maximal response relative to Dexamethasone (100%) (transactivation) (glucocorticoid receptor [2]): < 25%
